Assay results from US20190142881A1, “BACTERIOPHAGE COMPOSITIONS AND USES THEREOF” (priority 2016, published 2019).
For at least one compound, name, drawing or mass did not settle the structure.

Key:
Format in all cases: cell-based, Pseudomonas aeruginosa
knockout strain ΔmexR = assay: Bacterial growth kinetics (OD600) of ΔmexR in TET medium; details: TET 10 μg/mL, no phage
knockout strain ΔoprM = assay: Bacterial growth kinetics (OD600) of ΔoprM in TET medium; details: TET 10 μg/mL
[1] = system: environmental isolates (PAN, 1607, 1845); assay: MIC trade-off assay, phage-resistant mutants of environmental isolates; details: phage-resistant mutant versus parental strain
Experimental: Phage OMKO1 was amplified on P. aeruginosa in liquid culture in conditions identical to the Serial passage assays. Following 12 hours of amplification, 100 μl of culture was plated on LB agar and incubated for 12 hours. Individual colony-forming units (CFUs) were then collected, and verified to be phage resistant by classic ‘spot tests’ (i.e., 10^7 PFU of phage OMKO1 was pipetted onto a lawn of each bacterial isolate to test whether the phage was capable of visibly clearing the lawn [indicating bacterial sensitivity to phage] versus incapable of clearing the lawn [indicating bacterial resistance to phage]).
Bacterial strains were grown overnight at 37° C. as described above. A 200 μL sample of the culture was then spread onto an LB agar plate, and allowed to dry for 10 minutes, followed by application of an eTestStrip (BioMerieux) for a test antibiotic. […] Each strain was tested in triplicate for each antibiotic.
The effects of phage resistance on sensitivity to the four drugs was tested in replicated assays with PA01 and PA14, as well as with three environmental strains (PAN, 1607, 1845) and three clinical isolates (PAPS, PASk, PADFU). In these assays, the phage-OMKO1 resistant strain was either a knockout mutant (ΔoprM derived from PA01), or an independently derived spontaneous mutant of the associated parental strain.

Question: What does the source list for `CN(C)[C@@H]1C(O)=C(C(N)=O)C(=O)[C@@]2(O)C(O)=C3C(=O)c4c(O)cccc4[C@@](C)(O)[C@H]3C[C@@H]12` [TET, Tetracycline]?
Answer: growth of bacterial population (OD600) (knockout strain ΔmexR): robust growth; growth of bacterial population (OD600) (knockout strain ΔoprM): impaired growth; change in antibiotic sensitivity on resistance to phage OMKO1 [1]: increased sensitivity
